Results deposited as PubChem BioAssay AID504764 (Drosophila RNAi Screening Center, 2011)
The deposit covers about 22,000 reagents; shown is a random part of those that have a named target and a result. In the full data, 403 (1.9%) were called active. 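Unnormalised raw counts per well; ratio z-scores behind the hit calls and whether each hit raises or lowers signal are not deposited.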 Names joined by + are all predicted targets of the reagent. Not given: the amount of reagent.

Assay: 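Knock-downs that raise or lower a Notch target reporter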 (primary screen)
System: Drosophila Kc167 cells
Reagent: long dsRNA against Drosophila genes
Time to read-out: about 5 days (4 days dsRNA, then 24 h after transfection)
Conditions: transfection of constitutively active membrane-tethered Notch lacking the extracellular domain, read 24 h later
Measured: 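Light from a Notch-responsive E(spl)m3 luciferase reporter under active Notch, with control-promoter and no-Notch reporter wells to normalise; raw counts from paired wells a and b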
Scale: induced reporter light, run 1, well a and induced reporter light, run 1, well b: higher = more light from the Notch target reporter with active Notch; control promoter light, run 1, well a and control promoter light, run 1, well b: higher = more light from the viral control promoter (cell number, transfection, viability); uninduced reporter light, run 1, well a: higher = more light from the Notch target reporter without active Notch
Active means: 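Hit if the duplicate-averaged log2 ratio of induced to control-promoter light gives a plate-wise z beyond ±2, or induced to uninduced beyond ±1.8; weak-control or discordant-duplicate wells dropped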
Calls: active = modifier hit (raised or lowered Notch signal); inactive = not a hit

predicted target,amplicon,"induced reporter light, run 1, well a","induced reporter light, run 1, well b","control promoter light, run 1, well a","control promoter light, run 1, well b","uninduced reporter light, run 1, well a",outcome
CG12659,DRSC17862,1.25e5,1.14e5,2.04e5,2.18e5,9355,inactive
Vtld + CG42529,DRSC10102,1.57e5,1.27e5,1.06e5,1.20e5,9055,inactive
CG13170,DRSC06298,94975,80970,1.04e5,1.10e5,10115,inactive
Sgf11 (SAGA associated factor 11kDa),DRSC09987,1.52e5,2.13e5,2.13e5,1.97e5,9160,inactive
SCCRO (Squamous cell carcinoma-related oncogene),DRSC10844,2.65e5,2.26e5,2.76e5,2.78e5,6580,active
CG5674,DRSC02874,8910,9735,14195,12210,3065,inactive
Scgdelta (Sarcoglycan delta),DRSC18544,1.21e5,87755,1.55e5,2.12e5,6300,inactive
Polr1D + DCTN6-p27,DRSC02094,50210,47515,39075,30345,3070,inactive
CG1889 + CG43386,DRSC17979,1.49e5,1.26e5,2.46e5,2.84e5,7875,inactive
Prosalpha6 (Proteasome alpha6 subunit),DRSC03401,11345,11505,8130,8790,1540,inactive
Cpr62Bc (Cuticular protein 62Bc),DRSC08545,75330,94035,1.40e5,81660,3485,inactive
CG2493,DRSC02707,1.60e5,1.99e5,1.42e5,1.54e5,13500,inactive
Rpp20 + CG33932,DRSC19467,1.03e5,1.17e5,1.27e5,1.33e5,12445,inactive
mr (morula),DRSC04332,2.29e5,1.90e5,1.77e5,1.92e5,15780,inactive
CG9717,DRSC16543,1.28e5,1.51e5,1.87e5,1.83e5,12265,inactive
CG34229,DRSC06316,1.27e5,1.23e5,1.37e5,1.27e5,11350,inactive
SCAP (SREBP cleavage activating protein),DRSC04869,1.60e5,1.47e5,1.76e5,1.74e5,10090,inactive
SCAP (SREBP cleavage activating protein),DRSC04907,1.86e5,2.14e5,1.74e5,1.66e5,13315,inactive
CG4576,DRSC15604,2.18e5,1.93e5,2.55e5,2.77e5,15540,active
CG9896,DRSC03962,69635,83880,72990,72165,6570,inactive
CG9896,DRSC04594,1.42e5,1.42e5,1.55e5,1.57e5,10390,inactive
elgi (early girl),DRSC10242,97265,91205,66220,59735,7500,inactive
CG31688,DRSC02682,62620,41710,43930,40980,3645,inactive
Nedd4,DRSC11234,1.31e5,1.23e5,1.45e5,1.84e5,6365,inactive
emc (extra macrochaetae),DRSC08715,26345,23415,33875,32760,6240,inactive
Galphas (G protein alpha subunit s),DRSC04616,1.99e5,2.11e5,1.60e5,1.58e5,15950,inactive
CG1371,DRSC06409,1.67e5,1.57e5,1.57e5,1.58e5,14505,inactive
CG15653,DRSC04244,46240,39250,28790,43015,2940,inactive
CG34241,DRSC09157,1.77e5,1.81e5,1.35e5,1.54e5,10805,inactive
CG10713,DRSC09786,84670,80650,50830,51000,11160,active
Pih1D1 (PIH1 domain containing 1),DRSC02897,2.58e5,2.42e5,1.83e5,1.95e5,17445,inactive
CG6592,DRSC10669,1.07e5,92030,1.18e5,89630,6150,inactive
CG12877,DRSC14565,1.18e5,1.36e5,2.13e5,1.88e5,10980,inactive
Cpr92F (Cuticular protein 92F),DRSC15819,1.72e5,1.60e5,1.91e5,1.87e5,12670,inactive
CG12865 (retired record),DRSC06205,99955,96460,1.13e5,1.07e5,9370,inactive
RpL10Ab (Ribosomal protein L10Ab),DRSC10798,25830,22115,38930,32115,1270,inactive
CG14958,DRSC08417,93700,1.16e5,1.51e5,1.72e5,8320,inactive
CG15912,DRSC18105,1.38e5,1.37e5,2.64e5,2.82e5,11235,inactive
CG6769,DRSC20006,1.12e5,1.47e5,1.20e5,76190,11385,inactive
Mcm7 (Minichromosome maintenance 7),DRSC11219,1.01e5,82870,72135,48780,8160,inactive
lectin-33A,DRSC02529,1.04e5,1.28e5,64460,68260,13650,inactive
lectin-33A,DRSC22116,,,,,,inactive
RpS30 (Ribosomal protein S30),DRSC15119,10620,13832,14170,14735,1095,inactive
CG31051,DRSC15034,1.84e5,2.60e5,2.72e5,3.72e5,17780,inactive
CG32833,DRSC04596,1.60e5,1.75e5,1.18e5,1.57e5,10720,inactive
CG3285,DRSC00589,78845,92280,82025,83275,5680,inactive
CG11122,DRSC19382,1.44e5,1.62e5,2.18e5,2.04e5,11190,inactive
Ste:CG33238 + Ste:CG33241 + Ste:CG33236 + 11 more,DRSC19004,89305,79005,62815,85085,7595,inactive
Ste:CG33238 + Ste:CG33241 + Ste:CG33236 + 11 more,DRSC21260,1.13e5,96040,1.24e5,1.35e5,11110,inactive
Trx2 (Thioredoxin 2),DRSC03622,1.38e5,1.57e5,81560,96725,19755,inactive

Reprinted from the listing, 5 entries:
predicted target,amplicon,"induced reporter light, run 1, well a","induced reporter light, run 1, well b","control promoter light, run 1, well a","control promoter light, run 1, well b","uninduced reporter light, run 1, well a",outcome
Cpr92F (Cuticular protein 92F),DRSC15819,1.72e5,1.60e5,1.91e5,1.87e5,12670,inactive
CG12865 (retired record),DRSC06205,99955,96460,1.13e5,1.07e5,9370,inactive
RpL10Ab (Ribosomal protein L10Ab),DRSC10798,25830,22115,38930,32115,1270,inactive
CG14958,DRSC08417,93700,1.16e5,1.51e5,1.72e5,8320,inactive
CG15912,DRSC18105,1.38e5,1.37e5,2.64e5,2.82e5,11235,inactive
